US20140162952A1
Results are given in words; binding and its absence hold for the method and conditions named. In cells and extracts the contact can be indirect. Some results given as binding are weak or reduced against the parent protein; the word gives no strength.

Amino acid sequences for entries named in this document (tags omitted). A change or cut given only in a name is not applied to a line headed by its entry.
UniProt P03372: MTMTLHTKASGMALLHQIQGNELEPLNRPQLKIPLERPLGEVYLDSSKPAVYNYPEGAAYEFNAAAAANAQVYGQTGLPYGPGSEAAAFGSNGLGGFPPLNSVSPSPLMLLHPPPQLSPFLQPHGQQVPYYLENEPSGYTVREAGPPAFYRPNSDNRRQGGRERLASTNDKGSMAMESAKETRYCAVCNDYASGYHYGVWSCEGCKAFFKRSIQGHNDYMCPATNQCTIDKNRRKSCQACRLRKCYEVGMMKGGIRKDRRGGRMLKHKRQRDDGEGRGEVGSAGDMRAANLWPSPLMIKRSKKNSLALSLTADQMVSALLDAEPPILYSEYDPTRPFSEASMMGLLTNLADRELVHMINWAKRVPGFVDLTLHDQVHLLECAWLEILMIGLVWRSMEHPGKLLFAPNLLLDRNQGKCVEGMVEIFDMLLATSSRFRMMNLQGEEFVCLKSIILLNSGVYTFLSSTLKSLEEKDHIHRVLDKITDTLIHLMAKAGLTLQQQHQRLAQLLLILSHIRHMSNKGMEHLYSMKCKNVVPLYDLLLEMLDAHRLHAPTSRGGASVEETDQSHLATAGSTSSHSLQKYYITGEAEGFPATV

Columns and labels:
[1] = biological target: estrogen receptor α (ERα) (human) (UniProt P03372); test: anti-ERα co-IP from the cytoplasm fraction of MCF-7 cells, 24 hr, 10 nM E2 and/or 10 µM Peptide
[2] = biological target: estrogen receptor α (ERα) (human) (UniProt P03372); test: anti-ERα co-IP from KPL-3C cells, 24 h, 10 nM E2 and/or 10 µM Peptide
[3] = biological target: estrogen receptor α (ERα) (human) (UniProt P03372); test: anti-ERα co-IP from the cytoplasm fraction of MCF-7 cells, 24 h, 10 µM Peptide alone, 10 nM E2 alone or both

Measured: binding

B1: Shc (protein, human, UniProt P29353 1-583, looked up)
chain: MDLLPPKPKYNPLRNESLSSLEEGASGSTPPEELPSPSASSLGPILPPLPGDDSPTTLCSFFPRMSNLRLANPAGGRPGSKGEPGRAADDGEGIVGAAMPDSGPLPLLQDMNKLSGGGGRRTRVEGGQLGGEEWTRHGSFVNKPTRGWLHPNDKVMGPGVSYLVRYMGCVEVLQSMRALDFNTRTQVTREAISLVCEAVPGAKGATRRRKPCSRPLSSILGRSNLKFAGMPITLTVSTSSLNLMAADCKQIIANHHMQSISFASGGDPDTAEYVAYVAKDPVNQRACHILECPEGLAQDVISTIGQAFELRFKQYLRNPPKLVTPHDRMAGFDGSAWDEEEEEPPDHQYYNDFPGKEPPLGGVVDMRLREGAAPGAARPTAPNAQTPSHLGATLPVGQPVGGDPEVRKQMPPPPPCPGRELFDDPSYVNVQNLDKARQAVGGAGPPNPAINGSAPRDLFDMKPFEDALRVPPPPQSVSMAEQLRGEPWFHGKLSRREAEALLQLNGDFLVRESTTTPGQYVLTGLQSGQPKHLLLVDPEGVVRTKDHRFESVSHLISYHMDNHLPIISAGSELCLQQPVERKL
binds: [1] | [2] | [3]
